Test results from the supplement of paper PMC4604168 (melanoma cell lines).
The list shows a part of the results. Single values are uncertain, as repeats are few or missing.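 Cells were imaged in 1,536-well plates, and nuclei stained with an antibody against cleaved PARP were counted against all DNA-stained nuclei to give the apoptosis fraction. Screening doses were chosen to leave most cells alive, and resting and induced cleaved-PARP levels differ strongly between cell lines.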

These molecules were tested on WM3526 (assay: cleaved PARP positive nuclei fraction relative to DMSO control; melanoma cells; higher = more apoptosis). Details: library dose: low library concentration; 72 h.

First: CCCCCCCCCCCCCCCCCCOP(=O)([O-])OC1CC[N+](C)(C)CC1 [Perifosine] + Cn1cc(/C=C2\C(=O)Nc3cccnc32)c2ccccc21 [GW441756] (first compound 0.4 µM, partner dose 0.4 µM)
Second: O=C(/C=C/c1cccnc1)NCCCCC1CCN(C(=O)c2ccccc2)CC1 + COc1ccc(Cl)c(Nc2nc3ccccc3nc2NS(=O)(=O)c2cccc(NC(=O)C(C)(C)N)c2)c1 [XL147] (first compound 0.01 µM, partner dose 0.8 µM)
The “cleaved PARP positive nuclei fraction” value of the first is lower: 67.2% for the first, 70.9% for the second.

`N#CC[C@H](C1CCCC1)n1cc(-c2ncnc3[nH]ccc23)cn1` [ruxolitinib] + CC1(C)CCC(c2ccc(Cl)cc2)=C(CN2CCN(c3ccc(C(=O)NS(=O)(=O)c4ccc(N[C@H](CCN5CCOCC5)CSc5ccccc5)c(S(=O)(=O)C(F)(F)F)c4)cc3)CC2)C1 [ABT263] (first compound 1 µM, partner dose 0.4 µM) and `Cc1cc(Nc2cc(N3CCN(C)CC3)nc(Sc3ccc(NC(=O)C4CC4)cc3)n2)n[nH]1` [Tozasertib] + NC1(c2ccc(-c3nc4ccn5c(=O)[nH]nc5c4cc3-c3ccccc3)cc2)CCC1 [MK2206] (first compound 0.006 µM, partner dose 0.4 µM) are the same in “cleaved PARP positive nuclei fraction” value: 60.1% for the first, 60.1% for the second.

First: O=c1[nH]nc(Sc2ncc([N+](=O)[O-])s2)n1-c1ccc2c(c1)OCCO2 + COc1cc2ncnc(Nc3ccc(Oc4ccccc4)cc3)c2cc1OC [SrcI1] (first compound 0.2 µM, partner dose 2 µM)
Second: Cc1ccc(Nc2nccc(N(C)c3ccc4c(C)n(C)nc4c3)n2)cc1S(N)(=O)=O [Pazopanib] + Cc1cc([N+](=O)[O-])ccc1NS(=O)(=O)c1cc(Cl)ccc1Cl [FH535] (first compound 0.4 µM, partner dose 1 µM)
The “cleaved PARP positive nuclei fraction” value of the first is lower: 70.1% for the first, 110% for the second.

Compared with `CC[C@]1(O)C[C@H]2CN(CCc3c([nH]c4ccccc34)[C@@](C(=O)OC)(c3cc4c(cc3OC)N(C=O)[C@H]3[C@@](O)(C(=O)OC)[C@H](OC(C)=O)[C@]5(CC)C=CCN6CC[C@]43[C@@H]65)C2)C1` [vincristine] + CN(C)S(=O)(=O)c1ccc2c(c1)/C(=C/c1cc3c([nH]1)CCCC3)C(=O)N2 [SU6656] (first compound 0.0001 µM, partner dose 0.4 µM), `Cc1ccc(Nc2nccc(N(C)c3ccc4c(C)n(C)nc4c3)n2)cc1S(N)(=O)=O` [Pazopanib] + N#Cc1c(O)c2c(-c3ccc(-c4ccccc4O)cc3)csc2[nH]c1=O [A769662] (first compound 0.4 µM, partner dose 2 µM) is higher in “cleaved PARP positive nuclei fraction” value: 120% for the first, 163% for the second.

Compared with `O=C(Nc1cc(C(F)(F)F)cc(C(F)(F)F)c1)c1cc(Cl)ccc1O` + COc1ccc(C2=N[C@@H](c3ccc(Cl)cc3)[C@@H](c3ccc(Cl)cc3)N2C(=O)N2CCNC(=O)C2)c(OC(C)C)c1 [Nutlin-3] (first compound 0.016 µM, partner dose 0.1 µM), `Cc1cn(-c2cc(NC(=O)c3ccc(C)c(Nc4nccc(-c5cccnc5)n4)c3)cc(C(F)(F)F)c2)cn1` [nilotinib] + Nc1ncn([C@H]2C[C@H](O)[C@@H](CO)O2)c(=O)n1 [decitabine] (first compound 0.2 µM, partner dose 0.1 µM) is higher in “cleaved PARP positive nuclei fraction” value: 69.5% for the first, 213% for the second.

Going from `N#CC[C@H](C1CCCC1)n1cc(-c2ncnc3[nH]ccc23)cn1` [ruxolitinib] + CO[C@@H]1[C@H](N(C)C(=O)c2ccccc2)C[C@H]2O[C@]1(C)n1c3ccccc3c3c4c(c5c6ccccc6n2c5c31)C(=O)NC4 [Midostaurin] (first compound 1 µM, partner dose 0.08 µM) to `O=c1[nH]nc(Sc2ncc([N+](=O)[O-])s2)n1-c1ccc2c(c1)OCCO2` + OCCn1cc(-c2cnc3nnn(Cc4ccc5ncccc5c4)c3n2)cn1 [PF04217903] (first compound 0.2 µM, partner dose 1 µM), the “cleaved PARP positive nuclei fraction” value falls from 101% to 65.5%.

Going from `O=C(Nc1cc(C(F)(F)F)cc(C(F)(F)F)c1)c1cc(Cl)ccc1O` + CC(C)CCN1c2nc(Nc3cc(F)c(O)c(F)c3)ncc2N(C)C(=O)C1C [BID1870] (first compound 0.016 µM, partner dose 0.2 µM) to `Cc1ccc(Nc2nccc(N(C)c3ccc4c(C)n(C)nc4c3)n2)cc1S(N)(=O)=O` [Pazopanib] + CCc1ccc(CCOc2ccc(CC3SC(=O)NC3=O)cc2)nc1 [pioglitazone] (first compound 0.4 µM, partner dose 2 µM), the “cleaved PARP positive nuclei fraction” value falls from 346% to 83.5%.

For `N#CC[C@H](C1CCCC1)n1cc(-c2ncnc3[nH]ccc23)cn1` [ruxolitinib] + CCCS(=O)(=O)Nc1ccc(F)c(C(=O)c2c[nH]c3ncc(Cl)cc23)c1F [PLX4720] (first compound 1 µM, partner dose 0.08 µM), the “cleaved PARP positive nuclei fraction” value was 23.7%.
